Data from article PMC3517560.
These are yes or no findings as the source states them, for the method shown. Binding seen in cells or lysates may run through a third protein. Some entries that bind do so weakly or less than the wild type.

Amino acid sequences for entries named in this document (tags omitted).
UniProt Q9JI91: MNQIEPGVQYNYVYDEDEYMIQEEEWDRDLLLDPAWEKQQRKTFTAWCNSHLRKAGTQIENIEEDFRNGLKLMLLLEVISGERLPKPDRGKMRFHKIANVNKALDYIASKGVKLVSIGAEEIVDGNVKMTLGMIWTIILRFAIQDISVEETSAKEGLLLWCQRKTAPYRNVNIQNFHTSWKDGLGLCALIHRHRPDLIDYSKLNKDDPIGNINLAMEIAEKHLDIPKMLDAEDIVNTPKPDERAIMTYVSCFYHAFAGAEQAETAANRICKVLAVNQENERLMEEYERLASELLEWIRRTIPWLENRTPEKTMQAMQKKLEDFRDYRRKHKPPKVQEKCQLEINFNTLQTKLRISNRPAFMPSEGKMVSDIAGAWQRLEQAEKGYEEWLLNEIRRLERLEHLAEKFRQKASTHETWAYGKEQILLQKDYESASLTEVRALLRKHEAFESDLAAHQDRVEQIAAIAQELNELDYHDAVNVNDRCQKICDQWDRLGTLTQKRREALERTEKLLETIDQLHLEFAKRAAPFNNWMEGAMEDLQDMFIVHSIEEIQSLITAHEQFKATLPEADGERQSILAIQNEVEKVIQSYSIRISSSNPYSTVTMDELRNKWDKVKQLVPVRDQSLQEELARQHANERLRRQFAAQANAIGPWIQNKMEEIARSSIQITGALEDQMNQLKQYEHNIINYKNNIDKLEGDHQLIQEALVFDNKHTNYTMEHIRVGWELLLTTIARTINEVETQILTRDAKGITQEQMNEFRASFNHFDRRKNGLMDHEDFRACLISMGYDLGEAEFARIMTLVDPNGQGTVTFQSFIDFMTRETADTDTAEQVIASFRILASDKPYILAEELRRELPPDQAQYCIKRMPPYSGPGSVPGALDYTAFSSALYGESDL

Target: LRRC10, endogenous in mouse heart (mouse (endogenous in heart)) (UniProt Q8K3W2)
Experiment: co-IP; one-two month old mouse hearts homogenised in IP buffer (20 mM Tris HCl pH 8.0, 100 mM NaCl, 1 mM EDTA) with 1% triton X-100, 1 mM DTT, protease inhibitors; lysates incubated with preimmune serum or an LRRC10 antibody, Protein A agarose beads; immunoblot; Lrrc10-/- heart extracts as control

binding: binds
Substance: α-actinin, endogenous in mouse heart (from UniProt Q9JI91 1-894)
